Source: patent US12576024B2, “Compositions comprising Propionibacterium acnes bacteriophages for treating acne” (priority 2017, dated 2026)
“Also recorded” adds a separate entry of the source. For at least one compound, name, drawing or mass did not settle the structure.

Test system: P. granulosum
Assay: Plate assay with soaked pads, zones of killing
Format: cell-based
Conditions: soaked pads on agar plates, anaerobic, 72 hours (3 days), 37° C.; phage 2×10^7 pfu/mL (legend: 10^7 pfu/mL)

**Q.** For `CN(C)c1ccc(O)c2c1C[C@H]1C[C@H]3[C@H](N(C)C)C(O)=C(C(N)=O)C(=O)[C@@]3(O)C(O)=C1C2=O` [minocycline], which “zone of killing on commensal P. granulosum” value is on record?
**A.** The value was “kills both pathogenic and commensal bacteria; also recorded: zone of killing”.
